{
  "source": "paper PMC5441903",
  "about": "“The E3 ligase ABI3-INTERACTING PROTEIN2 negatively regulates FUSCA3 and plays a role in cotyledon development in Arabidopsis thaliana” (Journal of Experimental Botany, 2017)",
  "key": {"[1]": {"biological_target": "T1, BD-FUS3^N90 (FUS3 N-terminal region, first 90 amino acids including the B2 domain, fused to the LexA DNA-binding domain) (Arabidopsis thaliana) (UniProt Q9LW31)", "T1 sequence": "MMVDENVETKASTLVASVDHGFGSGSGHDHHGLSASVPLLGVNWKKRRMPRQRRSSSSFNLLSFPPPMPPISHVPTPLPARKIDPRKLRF", "assay": "two-hybrid; LexA DB fusion of FUS3^N90 (pEG202) and AD fusions of AIP2 variants (pJG4-5) in S. cerevisiae EGY48; growth on -His/-Trp/-Leu/-Ura plates with 2% galactose and 1% raffinose (leucine reporter)"}, "GST–FUS3": {"biological_target": "T2, GST–FUS3 (Arabidopsis thaliana, UniProt Q9LW31 1-313)", "T2 construct": "FUSCA3 (FUS3), Arabidopsis thaliana, At3g26790; GST fusion of ~66 kDa, construct described in Lu et al. (2010); probably the whole FUS3; also called glutathione S-transferase (GST)–FUS3; source: recombinant, purified (glutathione resin)", "T2 sequence (looked up)": "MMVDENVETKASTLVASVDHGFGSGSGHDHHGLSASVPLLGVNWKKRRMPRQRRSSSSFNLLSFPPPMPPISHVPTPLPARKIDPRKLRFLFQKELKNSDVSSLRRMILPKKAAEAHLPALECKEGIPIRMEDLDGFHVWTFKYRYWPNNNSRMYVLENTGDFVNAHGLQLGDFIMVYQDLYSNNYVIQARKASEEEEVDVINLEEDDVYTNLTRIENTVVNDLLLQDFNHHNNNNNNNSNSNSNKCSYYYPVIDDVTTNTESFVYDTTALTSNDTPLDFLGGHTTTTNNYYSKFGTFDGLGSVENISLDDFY", "assay": "pull-down; GST–FUS3 (2.5 µg) incubated with 35Sp:HA-AIP2 or 35Sp:HA-AIP2^C/S,E/G plant cell lysates, pulled down with glutathione resin; AIP2 detected with anti-HA; only the target purified"}, "[2]": {"biological_target": "T3, nYFP–FUS3 (Arabidopsis thaliana) (UniProt Q9LW31)", "T3 sequence": "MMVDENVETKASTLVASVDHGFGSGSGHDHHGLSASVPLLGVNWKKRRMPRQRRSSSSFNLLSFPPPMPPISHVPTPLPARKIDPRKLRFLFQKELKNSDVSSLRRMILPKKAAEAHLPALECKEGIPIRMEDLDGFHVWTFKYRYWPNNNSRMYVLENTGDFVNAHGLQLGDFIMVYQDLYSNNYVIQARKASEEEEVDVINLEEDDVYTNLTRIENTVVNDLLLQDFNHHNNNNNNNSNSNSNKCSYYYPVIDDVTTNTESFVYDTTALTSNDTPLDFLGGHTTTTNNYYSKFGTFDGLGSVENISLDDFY", "assay": "split reporter; BiFC: nYFP and cYFP fusions transiently co-expressed in N. benthamiana leaves by agroinfiltration, confocal imaging after 48 h"}},
  "note": "Results are given in words; binding and its absence hold for the method and conditions named. For some of these results: Binding seen in cells or lysates may run through a third protein. Some binding calls cover weakened binding; strength is not graded here. Where a sequence is shown, tags or fusion partners need not be part of it.",
  "data": [
    {"binder": "AD-AIP2 (ABI3-… PROTEIN2 fused to an activation domain) (protein, UniProt Q8RXD3 1-310) MDASSSPSPSEESLKLELDDLQKQLNKKLRFEASVCSIHNLLRDHYSSSSPSLRKQFYIVVSRVATVLKTRYTATGFWVAGLSLFEEAERLVSDASEKKHLKSCVAQAKEQLSEVDNQPTESSQGYLFEGHLTVDREPPQPQWLVQQNLMSAFASIVGGESSNGPTENTIGETANLMQELINGLDMIIPDILDDGGPPRAPPASKEVVEKLPVIIFTEELLKKFGAEAECCICKENLVIGDKMQELPCKHTFHPPCLKPWLDEHNSCPICRHELPTDDQKYENWKEREKEAEEERKGAENAVRGGEYMYV", "values": [
      {"measurement": "binding", "setting": "[1]", "value": "binds"}
    ]},
    {"binder": "HA-AIP2 (35Sp:HA-AIP2) (protein, UniProt Q8RXD3 1-310) MDASSSPSPSEESLKLELDDLQKQLNKKLRFEASVCSIHNLLRDHYSSSSPSLRKQFYIVVSRVATVLKTRYTATGFWVAGLSLFEEAERLVSDASEKKHLKSCVAQAKEQLSEVDNQPTESSQGYLFEGHLTVDREPPQPQWLVQQNLMSAFASIVGGESSNGPTENTIGETANLMQELINGLDMIIPDILDDGGPPRAPPASKEVVEKLPVIIFTEELLKKFGAEAECCICKENLVIGDKMQELPCKHTFHPPCLKPWLDEHNSCPICRHELPTDDQKYENWKEREKEAEEERKGAENAVRGGEYMYV", "values": [
      {"measurement": "binding", "setting": "GST–FUS3", "value": "binds"}
    ]},
    {"binder": "AIP2^(C/S,E/G)-6×His (inactive AIP2 variant) (natural protein, Arabidopsis thaliana, UniProt Q8RXD3 1-310, looked up, ~40 kDa; Probably the same FLAG-...-6×His construct as m5 with the three mutations; source: recombinant, purified) MDASSSPSPSEESLKLELDDLQKQLNKKLRFEASVCSIHNLLRDHYSSSSPSLRKQFYIVVSRVATVLKTRYTATGFWVAGLSLFEEAERLVSDASEKKHLKSCVAQAKEQLSEVDNQPTESSQGYLFEGHLTVDREPPQPQWLVQQNLMSAFASIVGGESSNGPTENTIGETANLMQELINGLDMIIPDILDDGGPPRAPPASKEVVEKLPVIIFTEELLKKFGAEAESSICKGNLVIGDKMQELPCKHTFHPPCLKPWLDEHNSCPICRHELPTDDQKYENWKEREKEAEEERKGAENAVRGGEYMYV", "values": [
      {"measurement": "binding", "setting": "GST–FUS3", "value": "binds"}
    ]},
    {"binder": "cYFP–AIP2 (protein, UniProt Q8RXD3 1-310) MDASSSPSPSEESLKLELDDLQKQLNKKLRFEASVCSIHNLLRDHYSSSSPSLRKQFYIVVSRVATVLKTRYTATGFWVAGLSLFEEAERLVSDASEKKHLKSCVAQAKEQLSEVDNQPTESSQGYLFEGHLTVDREPPQPQWLVQQNLMSAFASIVGGESSNGPTENTIGETANLMQELINGLDMIIPDILDDGGPPRAPPASKEVVEKLPVIIFTEELLKKFGAEAECCICKENLVIGDKMQELPCKHTFHPPCLKPWLDEHNSCPICRHELPTDDQKYENWKEREKEAEEERKGAENAVRGGEYMYV", "values": [
      {"measurement": "binding", "setting": "[2]", "value": "binds"}
    ]}
  ]
}
